Measured values reported in the supplement of paper PMC8728848.
The list shows a part of the results.

Assays:
Assay in all cases: glycan array binding signal (z-score within array); higher = stronger binding
Details in all cases: glycan notation: IUPAC condensed, linker removed
Fuc(a1-3)GlcNAc = biological target: Fuc(a1-3)GlcNAc
Method in brief: (§1)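 Negative Z-scores can be read as non-binding. The Z-score is calculated within each array and then averaged across arrays of one protein sequence at different concentrations or buffers and across linkers. Arrays, 3228 in all, were curated from the Consortium for Functional Glycomics database and kept only where the protein sequence was available.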

[1] = biological target: Fuc(a1-3)[Gal(b1-4)]Glc6S
Method in brief: as §1

[2] = biological target: Fuc(a1-3)[Gal(b1-4)]GlcNAc
Method in brief: as §1

[3] = biological target: Fuc(a1-3)[Gal(b1-4)]GlcNAc(b1-2)Man
Method in brief: as §1

[4] = biological target: Fuc(a1-3)[Gal(b1-4)]GlcNAc(b1-2)Man(a1-3)[Fuc(a1-3)[Gal(b1-4)]GlcNAc(b1-2)Man(a1-6)]Man(b1-4)GlcNAc(b1-4)GlcNAc
Method in brief: as §1

[5] = biological target: Fuc(a1-3)[Gal(b1-4)]GlcNAc(b1-2)Man(a1-3)[Fuc(a1-3)[Gal(b1-4)]GlcNAc(b1-2)Man(a1-6)]Man(b1-4)GlcNAc(b1-4)[Fuc(a1-6)]GlcNAc
Method in brief: as §1

[6] = biological target: Fuc(a1-3)[Gal(b1-4)]GlcNAc(b1-3)Gal(b1-3)[Fuc(a1-4)]GlcNAc
Method in brief: as §1

[7] = biological target: Fuc(a1-3)[Gal(b1-4)]GlcNAc(b1-3)Gal(b1-4)[Fuc(a1-3)]GlcNAc
Method in brief: as §1

[8] = biological target: Fuc(a1-3)[Gal(b1-4)]GlcNAc(b1-3)Gal(b1-4)[Fuc(a1-3)]GlcNAc(b1-3)Gal(b1-4)[Fuc(a1-3)]GlcNAc
Method in brief: as §1

[9] = biological target: Fuc(a1-3)[Gal(b1-4)]GlcNAc(b1-3)GalNAc
Method in brief: as §1

[10] = biological target: Fuc(a1-3)[Gal(b1-4)]GlcNAc(b1-6)GalNAc
Method in brief: as §1

[11] = biological target: Fuc(a1-3)[Gal(b1-4)]GlcNAc(b1-6)[Gal(b1-3)GlcNAc(b1-3)]Gal(b1-4)Glc
Method in brief: as §1

[12] = biological target: Fuc(a1-3)[Gal(b1-4)]GlcNAc6S
Method in brief: as §1

[13] = biological target: Fuc(a1-3)[Gal3S(b1-4)]Glc
Method in brief: as §1

[14] = biological target: Fuc(a1-3)[Gal3S(b1-4)]GlcNAc
Method in brief: as §1

[15] = biological target: Fuc(a1-3)[Gal3S(b1-4)]GlcNAc6S
Method in brief: as §1

[16] = biological target: Fuc(a1-3)[GalNAc(b1-4)]GlcNAc
Method in brief: as §1

[17] = biological target: Fuc(a1-3)[GalNAc(b1-4)]GlcNAc6S
Method in brief: as §1

Fuc(a1-4)GlcNAc = biological target: Fuc(a1-4)GlcNAc
Method in brief: as §1

Fuc(b1-3)GlcNAc = biological target: Fuc(b1-3)GlcNAc
Method in brief: as §1

Gal(a1-2)Gal = biological target: Gal(a1-2)Gal
Method in brief: as §1

Gal(a1-3)Gal = biological target: Gal(a1-3)Gal
Method in brief: as §1

Gal(a1-3)Gal(b1-3)GlcNAc = biological target: Gal(a1-3)Gal(b1-3)GlcNAc
Method in brief: as §1

[18] = biological target: Gal(a1-3)Gal(b1-3)GlcNAc(b1-2)Man
Method in brief: as §1

[19] = biological target: Gal(a1-3)Gal(b1-3)GlcNAc(b1-2)Man(a1-3)[Gal(a1-3)Gal(b1-3)GlcNAc(b1-2)Man(a1-6)]Man(b1-4)GlcNAc(b1-4)GlcNAc
Method in brief: as §1

[20] = biological target: Gal(a1-3)Gal(b1-3)GlcNAc(b1-3)GalNAc
Method in brief: as §1

[21] = biological target: Gal(a1-3)Gal(b1-3)GlcNAc(b1-6)GalNAc
Method in brief: as §1

[22] = biological target: Gal(a1-3)Gal(b1-3)[Fuc(a1-4)]GlcNAc(b1-2)Man(a1-3)[Gal(a1-3)Gal(b1-3)[Fuc(a1-4)]GlcNAc(b1-2)Man(a1-6)]Man(b1-4)GlcNAc(b1-4)GlcNAc
Method in brief: as §1

Gal(a1-3)Gal(b1-4)Glc = biological target: Gal(a1-3)Gal(b1-4)Glc
Method in brief: as §1

Gal(a1-3)Gal(b1-4)GlcNAc = biological target: Gal(a1-3)Gal(b1-4)GlcNAc
Method in brief: as §1

[23] = biological target: Gal(a1-3)Gal(b1-4)GlcNAc(b1-2)Man
Method in brief: as §1

[24] = biological target: Gal(a1-3)Gal(b1-4)GlcNAc(b1-2)Man(a1-3)[Gal(a1-3)Gal(b1-4)GlcNAc(b1-2)Man(a1-6)]Man(b1-4)GlcNAc(b1-4)GlcNAc
Method in brief: as §1

[25] = biological target: Gal(a1-3)Gal(b1-4)GlcNAc(b1-3)GalNAc
Method in brief: as §1

[26] = biological target: Gal(a1-3)Gal(b1-4)GlcNAc(b1-6)GalNAc
Method in brief: as §1

[27] = biological target: Gal(a1-3)Gal(b1-4)[Fuc(a1-3)]GlcNAc
Method in brief: as §1

[28] = biological target: Gal(a1-3)Gal(b1-4)[Fuc(a1-3)]GlcNAc(b1-2)Man(a1-3)[Gal(a1-3)Gal(b1-4)[Fuc(a1-3)]GlcNAc(b1-2)Man(a1-6)]Man(b1-4)GlcNAc(b1-4)GlcNAc
Method in brief: as §1

Gal(a1-3)GalNAc = biological target: Gal(a1-3)GalNAc
Method in brief: as §1

B1: GS13814A-bth-462-26-462 (Bacteroides thetaiotaomicron) (protein)
chain: DDRDNLMVNDQIGLLHSTYTETEIFRGMDTPYQLFVIKSGKGKQETEVSISVDETVLQSYNTDNGTSIQLLPSDCYTILQPALRLNDSDYRKAFDIKWNADRLSDLLSTGKEYGLPIQMSVVQNFISADDERLKTIIVPTIKEPYLQMDVPGMSPVTDFMPTFGDLNERELFVKIRTNYSNDEDISFQIEVDPQLVIDYNTAHGTAYKMLPESSFTVDNKGVILTGMKETFIKIKYHKKGLIPEEGTYLFGDYVLPLRITSVSKYGISPDAASKLYTVKFQPDPIDKKGWSVIDFNNCCTQDGGWYLNMGWGVESLIDNNPGTQWLCRWDVKEPLPYYFVFDMGKEYTLFRFGFANPVAPAAHVWAGTSKAGYVEASIDNENWVKLKDWTSPKIGEPNVNMDVPATQARYIRFVITDTYPTYDGLRVSLGEVYAWGM
glycan array binding signal (z-score) (Fuc(a1-3)GlcNAc): 0.173
glycan array binding signal (z-score) [1]: -0.89
glycan array binding signal (z-score) [2]: -0.799
glycan array binding signal (z-score) [3]: 0.981
glycan array binding signal (z-score) [4]: -0.036
glycan array binding signal (z-score) [5]: 0.09
glycan array binding signal (z-score) [6]: -0.028
glycan array binding signal (z-score) [7]: 0.142
glycan array binding signal (z-score) [8]: -0.326
glycan array binding signal (z-score) [9]: -0.553
glycan array binding signal (z-score) [10]: 0.375
glycan array binding signal (z-score) [11]: -1.09
glycan array binding signal (z-score) [12]: 0.674
glycan array binding signal (z-score) [13]: -0.86
glycan array binding signal (z-score) [14]: 1.23
glycan array binding signal (z-score) [15]: -0.631
glycan array binding signal (z-score) [16]: 2.12
glycan array binding signal (z-score) [17]: -0.857
glycan array binding signal (z-score) (Fuc(a1-4)GlcNAc): 14.3
glycan array binding signal (z-score) (Fuc(b1-3)GlcNAc): 1.35
glycan array binding signal (z-score) (Gal(a1-2)Gal): -0.831
glycan array binding signal (z-score) (Gal(a1-3)Gal): 0.164
glycan array binding signal (z-score) (Gal(a1-3)Gal(b1-3)GlcNAc): -0.542
glycan array binding signal (z-score) [18]: -1.19
glycan array binding signal (z-score) [19]: 1.04
glycan array binding signal (z-score) [20]: -0.741
glycan array binding signal (z-score) [21]: -0.571
glycan array binding signal (z-score) [22]: -0.262
glycan array binding signal (z-score) (Gal(a1-3)Gal(b1-4)Glc): 0.383
glycan array binding signal (z-score) (Gal(a1-3)Gal(b1-4)GlcNAc): 0.048
glycan array binding signal (z-score) [23]: -0.41
glycan array binding signal (z-score) [24]: -0.267
glycan array binding signal (z-score) [25]: -0.778
glycan array binding signal (z-score) [26]: -1.23
glycan array binding signal (z-score) [27]: -0.925
glycan array binding signal (z-score) [28]: -0.07
glycan array binding signal (z-score) (Gal(a1-3)GalNAc): 0.128
